The values that follow come from paper PMC11904782.

Amino acid sequences for entries named in this document (tags omitted). A change or cut given only in a name is not applied to a line headed by its entry.
UniProt Q8NFD5: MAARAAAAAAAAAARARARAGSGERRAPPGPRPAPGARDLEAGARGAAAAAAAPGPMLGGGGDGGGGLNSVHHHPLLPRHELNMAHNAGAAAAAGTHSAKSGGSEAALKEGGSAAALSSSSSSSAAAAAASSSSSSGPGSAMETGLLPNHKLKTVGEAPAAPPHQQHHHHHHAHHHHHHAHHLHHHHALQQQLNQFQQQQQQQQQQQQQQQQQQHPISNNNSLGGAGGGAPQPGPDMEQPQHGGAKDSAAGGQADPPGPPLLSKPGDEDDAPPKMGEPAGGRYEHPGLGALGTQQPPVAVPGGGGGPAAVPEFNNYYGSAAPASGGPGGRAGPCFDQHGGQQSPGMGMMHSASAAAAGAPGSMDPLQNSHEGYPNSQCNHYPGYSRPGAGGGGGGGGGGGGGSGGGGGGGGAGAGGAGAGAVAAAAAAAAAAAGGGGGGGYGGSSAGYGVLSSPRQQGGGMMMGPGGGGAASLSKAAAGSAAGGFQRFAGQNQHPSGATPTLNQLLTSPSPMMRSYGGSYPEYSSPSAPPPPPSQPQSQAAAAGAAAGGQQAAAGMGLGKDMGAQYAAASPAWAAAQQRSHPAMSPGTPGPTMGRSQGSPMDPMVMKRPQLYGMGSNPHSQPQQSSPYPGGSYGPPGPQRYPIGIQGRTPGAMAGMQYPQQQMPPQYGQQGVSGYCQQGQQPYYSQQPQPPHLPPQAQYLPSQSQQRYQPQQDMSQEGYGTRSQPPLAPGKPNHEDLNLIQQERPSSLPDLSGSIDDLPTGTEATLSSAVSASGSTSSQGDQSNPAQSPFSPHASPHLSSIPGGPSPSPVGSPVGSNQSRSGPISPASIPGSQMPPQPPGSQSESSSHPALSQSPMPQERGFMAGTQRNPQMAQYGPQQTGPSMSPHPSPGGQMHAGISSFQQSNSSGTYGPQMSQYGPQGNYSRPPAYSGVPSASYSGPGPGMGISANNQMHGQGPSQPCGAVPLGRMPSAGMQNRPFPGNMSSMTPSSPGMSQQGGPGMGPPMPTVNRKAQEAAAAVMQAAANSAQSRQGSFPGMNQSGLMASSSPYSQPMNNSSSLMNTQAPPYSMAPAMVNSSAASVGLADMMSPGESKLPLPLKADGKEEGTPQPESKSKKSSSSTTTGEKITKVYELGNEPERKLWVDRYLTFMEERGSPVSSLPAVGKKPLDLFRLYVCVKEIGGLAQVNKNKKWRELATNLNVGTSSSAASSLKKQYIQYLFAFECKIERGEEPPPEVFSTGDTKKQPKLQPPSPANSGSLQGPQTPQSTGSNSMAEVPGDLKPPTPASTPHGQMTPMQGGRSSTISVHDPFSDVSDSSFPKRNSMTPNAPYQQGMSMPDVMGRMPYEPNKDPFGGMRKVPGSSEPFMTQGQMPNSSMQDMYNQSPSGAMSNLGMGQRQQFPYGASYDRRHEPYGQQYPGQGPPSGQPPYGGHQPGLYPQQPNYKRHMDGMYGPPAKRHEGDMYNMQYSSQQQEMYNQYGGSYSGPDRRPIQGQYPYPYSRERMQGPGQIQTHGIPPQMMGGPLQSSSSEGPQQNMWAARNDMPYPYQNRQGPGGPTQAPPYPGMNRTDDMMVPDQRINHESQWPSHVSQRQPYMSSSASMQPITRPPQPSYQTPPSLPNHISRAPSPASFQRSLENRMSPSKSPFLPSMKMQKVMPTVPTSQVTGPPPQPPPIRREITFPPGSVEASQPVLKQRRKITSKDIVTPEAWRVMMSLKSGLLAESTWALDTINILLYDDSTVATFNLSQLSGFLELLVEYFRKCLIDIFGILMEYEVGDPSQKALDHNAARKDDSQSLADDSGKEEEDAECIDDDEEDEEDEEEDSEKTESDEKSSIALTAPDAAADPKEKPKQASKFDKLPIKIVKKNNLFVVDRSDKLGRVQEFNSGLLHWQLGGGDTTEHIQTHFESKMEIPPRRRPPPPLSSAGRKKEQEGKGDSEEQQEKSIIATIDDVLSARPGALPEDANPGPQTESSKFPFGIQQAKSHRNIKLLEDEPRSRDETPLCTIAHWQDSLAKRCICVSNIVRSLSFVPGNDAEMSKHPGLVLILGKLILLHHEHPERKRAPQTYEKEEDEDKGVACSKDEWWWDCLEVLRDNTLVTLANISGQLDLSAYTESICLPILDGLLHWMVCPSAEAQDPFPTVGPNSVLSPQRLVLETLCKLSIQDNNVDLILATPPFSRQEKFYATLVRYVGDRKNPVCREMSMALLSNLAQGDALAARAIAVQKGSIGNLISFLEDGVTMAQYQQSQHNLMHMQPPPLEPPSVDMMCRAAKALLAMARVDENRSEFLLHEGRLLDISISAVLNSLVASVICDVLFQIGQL
UniProt P78527: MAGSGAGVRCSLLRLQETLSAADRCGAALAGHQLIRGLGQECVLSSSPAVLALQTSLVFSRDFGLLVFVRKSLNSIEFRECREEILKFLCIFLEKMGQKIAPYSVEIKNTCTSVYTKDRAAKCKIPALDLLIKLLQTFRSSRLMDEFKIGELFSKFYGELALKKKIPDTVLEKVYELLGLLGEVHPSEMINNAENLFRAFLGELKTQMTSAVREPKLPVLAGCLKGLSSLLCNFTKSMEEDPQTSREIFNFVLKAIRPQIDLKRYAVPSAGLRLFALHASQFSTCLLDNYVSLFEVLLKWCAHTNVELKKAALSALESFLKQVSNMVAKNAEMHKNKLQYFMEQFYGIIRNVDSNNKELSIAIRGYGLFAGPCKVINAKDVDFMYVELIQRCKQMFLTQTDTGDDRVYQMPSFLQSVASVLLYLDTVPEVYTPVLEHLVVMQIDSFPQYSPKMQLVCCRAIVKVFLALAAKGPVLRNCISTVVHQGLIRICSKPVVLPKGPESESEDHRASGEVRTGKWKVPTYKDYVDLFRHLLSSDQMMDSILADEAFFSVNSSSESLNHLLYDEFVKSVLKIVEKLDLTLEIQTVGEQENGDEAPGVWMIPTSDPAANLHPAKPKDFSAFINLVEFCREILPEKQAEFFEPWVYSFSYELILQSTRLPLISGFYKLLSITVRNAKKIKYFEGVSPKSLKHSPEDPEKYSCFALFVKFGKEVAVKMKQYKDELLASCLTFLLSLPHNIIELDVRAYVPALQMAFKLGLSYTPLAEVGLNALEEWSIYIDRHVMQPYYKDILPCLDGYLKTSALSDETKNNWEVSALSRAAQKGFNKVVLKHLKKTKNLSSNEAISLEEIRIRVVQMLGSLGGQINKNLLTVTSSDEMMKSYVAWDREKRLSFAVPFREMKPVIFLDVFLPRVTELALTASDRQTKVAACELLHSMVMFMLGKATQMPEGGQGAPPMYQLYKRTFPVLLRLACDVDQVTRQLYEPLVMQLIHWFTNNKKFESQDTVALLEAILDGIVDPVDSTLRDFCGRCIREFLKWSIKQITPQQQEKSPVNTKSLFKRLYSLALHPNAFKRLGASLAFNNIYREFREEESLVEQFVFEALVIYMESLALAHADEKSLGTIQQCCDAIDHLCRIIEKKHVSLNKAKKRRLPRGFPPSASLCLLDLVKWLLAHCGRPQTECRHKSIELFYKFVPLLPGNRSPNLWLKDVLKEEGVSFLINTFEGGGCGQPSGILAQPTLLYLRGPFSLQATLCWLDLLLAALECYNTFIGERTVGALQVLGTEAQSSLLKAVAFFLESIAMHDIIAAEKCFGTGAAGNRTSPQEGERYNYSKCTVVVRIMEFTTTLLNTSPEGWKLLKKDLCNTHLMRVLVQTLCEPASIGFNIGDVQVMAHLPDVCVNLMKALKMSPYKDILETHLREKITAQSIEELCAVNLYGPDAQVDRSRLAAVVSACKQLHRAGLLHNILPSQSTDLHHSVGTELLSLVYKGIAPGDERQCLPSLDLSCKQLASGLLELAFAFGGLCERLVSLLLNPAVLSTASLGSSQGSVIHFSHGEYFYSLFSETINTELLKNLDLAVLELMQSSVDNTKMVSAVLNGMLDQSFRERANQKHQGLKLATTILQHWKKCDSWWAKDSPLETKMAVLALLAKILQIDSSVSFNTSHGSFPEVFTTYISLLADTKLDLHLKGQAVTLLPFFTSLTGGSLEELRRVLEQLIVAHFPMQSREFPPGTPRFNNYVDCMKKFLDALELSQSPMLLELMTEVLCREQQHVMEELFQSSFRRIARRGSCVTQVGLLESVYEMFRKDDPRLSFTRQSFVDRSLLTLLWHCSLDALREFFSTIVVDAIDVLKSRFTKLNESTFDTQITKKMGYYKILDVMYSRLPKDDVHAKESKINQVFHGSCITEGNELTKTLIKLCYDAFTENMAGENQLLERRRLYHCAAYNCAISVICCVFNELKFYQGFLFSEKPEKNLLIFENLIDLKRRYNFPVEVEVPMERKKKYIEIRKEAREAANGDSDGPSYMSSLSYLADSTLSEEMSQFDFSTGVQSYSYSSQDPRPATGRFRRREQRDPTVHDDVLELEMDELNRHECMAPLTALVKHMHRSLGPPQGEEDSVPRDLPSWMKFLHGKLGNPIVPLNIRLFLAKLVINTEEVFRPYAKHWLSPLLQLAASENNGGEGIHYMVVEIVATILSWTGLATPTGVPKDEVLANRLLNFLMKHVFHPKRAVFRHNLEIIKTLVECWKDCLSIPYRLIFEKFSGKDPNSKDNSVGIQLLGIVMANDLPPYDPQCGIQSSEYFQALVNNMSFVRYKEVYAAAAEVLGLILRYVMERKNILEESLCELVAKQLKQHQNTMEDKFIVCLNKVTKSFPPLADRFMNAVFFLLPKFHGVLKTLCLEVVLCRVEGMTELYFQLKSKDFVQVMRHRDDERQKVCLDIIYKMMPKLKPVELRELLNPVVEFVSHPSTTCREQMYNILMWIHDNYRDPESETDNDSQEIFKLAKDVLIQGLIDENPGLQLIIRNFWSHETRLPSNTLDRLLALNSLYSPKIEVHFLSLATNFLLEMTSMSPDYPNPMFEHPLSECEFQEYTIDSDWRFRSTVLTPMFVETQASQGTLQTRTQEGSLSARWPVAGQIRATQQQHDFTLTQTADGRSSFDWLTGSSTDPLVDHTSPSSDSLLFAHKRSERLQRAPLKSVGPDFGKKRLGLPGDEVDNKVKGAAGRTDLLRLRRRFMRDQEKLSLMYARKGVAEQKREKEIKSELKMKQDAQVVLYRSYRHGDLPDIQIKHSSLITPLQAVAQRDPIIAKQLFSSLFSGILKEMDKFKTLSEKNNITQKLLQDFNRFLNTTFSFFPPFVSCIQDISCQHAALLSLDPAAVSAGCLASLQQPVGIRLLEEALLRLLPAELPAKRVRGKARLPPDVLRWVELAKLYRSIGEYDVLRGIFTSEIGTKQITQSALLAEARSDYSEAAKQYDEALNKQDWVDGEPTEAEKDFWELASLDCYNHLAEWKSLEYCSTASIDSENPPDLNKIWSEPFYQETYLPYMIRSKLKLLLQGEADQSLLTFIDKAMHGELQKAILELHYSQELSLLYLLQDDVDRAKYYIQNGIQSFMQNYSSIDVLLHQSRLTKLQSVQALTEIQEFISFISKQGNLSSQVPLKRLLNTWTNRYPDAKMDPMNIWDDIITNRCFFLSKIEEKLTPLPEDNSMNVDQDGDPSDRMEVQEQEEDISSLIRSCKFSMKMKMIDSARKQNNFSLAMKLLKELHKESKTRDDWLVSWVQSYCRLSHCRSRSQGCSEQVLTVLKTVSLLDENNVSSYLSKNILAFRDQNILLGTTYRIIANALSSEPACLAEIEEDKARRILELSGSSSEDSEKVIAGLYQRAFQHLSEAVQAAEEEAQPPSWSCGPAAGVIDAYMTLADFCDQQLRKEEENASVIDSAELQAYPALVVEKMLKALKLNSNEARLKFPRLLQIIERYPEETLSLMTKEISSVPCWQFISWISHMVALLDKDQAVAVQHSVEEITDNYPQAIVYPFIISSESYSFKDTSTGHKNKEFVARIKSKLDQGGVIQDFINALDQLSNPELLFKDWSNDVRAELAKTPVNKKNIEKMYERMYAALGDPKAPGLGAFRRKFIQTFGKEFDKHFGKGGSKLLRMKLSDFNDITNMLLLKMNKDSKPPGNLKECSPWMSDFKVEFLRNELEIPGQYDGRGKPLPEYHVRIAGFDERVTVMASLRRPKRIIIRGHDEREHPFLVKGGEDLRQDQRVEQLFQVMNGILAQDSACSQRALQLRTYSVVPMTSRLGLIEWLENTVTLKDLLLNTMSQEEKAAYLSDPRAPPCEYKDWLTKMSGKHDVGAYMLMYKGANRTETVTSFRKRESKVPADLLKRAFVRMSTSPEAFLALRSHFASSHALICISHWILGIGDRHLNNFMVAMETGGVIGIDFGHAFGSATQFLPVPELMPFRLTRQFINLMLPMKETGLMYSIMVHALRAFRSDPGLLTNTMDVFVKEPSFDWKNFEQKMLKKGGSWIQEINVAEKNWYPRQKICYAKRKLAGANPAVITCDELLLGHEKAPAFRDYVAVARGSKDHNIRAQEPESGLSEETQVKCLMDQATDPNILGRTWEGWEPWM

The target in this experiment is GST–ARID1B–ARM: ARM domain of ARID1B (aa 1861–2236) (UniProt Q8NFD5). In words: pull-down; GST–ARID1A mutants or GST–ARID1B–ARM on Glutathione Sepharose beads incubated with HEK293 (methods: 293T) nuclear extract for 4 h at 4°C with RNase A and DNase I; bound proteins by immunoblot; only the target purified.

No constants are given. Whether binding was seen depends on the method and setting. In cells and extracts the contact can be indirect. Binding calls can cover weak binding; strength is not graded here.

For the substance “DNA-dependent protein kinase catalytic subunit (DNA-PKcs), endogenous wild type (from UniProt P78527 1-4128)”, the binding entry is “binds”.
